SMILES strings stand for the structures. The list shows a part of the results. Shown are side measurements of this screen, not its main read-out; they come without a call. Compounds called inactive in the main read-out are mostly missing here. Words in brackets tell the shape of the fitted curve; partial curves, single points and poor fits give uncertain potencies.

This assay in a line: Cell signaling CRE-BLA (Fsk stim). Conditions: CHO CRE-bla reporter (cAMP response element driving beta-lactamase), forskolin EC10, beta-lactamase ratio; measured here: 460 nm blue channel. The procedure, abridged:
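CHO CRE-bla cells, overnight plating in Opti-MEM with 0.5% dialyzed FBS; cpd titration + EC10 NKH 477, 3 h 37 °C; CCF4 2 h RT; ex 405/em 460 vs 530 ratio → %Activity, AC50.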
As a reminder, the AC50 is the concentration at which the activity in the assay is half-maximal. Take `Cc1cc(Nc2ccc(Br)c(C)c2)n2nc(C)nc2n1`: the concentration at half-maximal activity (AC50) is 7.94 µM [rising, partial curve].
To `CCc1ccc(NC(=O)N(CCCOC(C)C)C2CCN(C(C)=O)CC2)cc1` belongs 5.01 µM [falling, partial curve, poor fit].
In the case of `CNc1nc2c(c(=O)[nH]c(=O)n2C)n1CCOC` it was 3.16 µM [falling, partial curve].
In the case of `Cc1cnc(CNc2ncnc3ccc(-c4ccccc4C)cc23)cn1`, the concentration at half-maximal activity (AC50) is 10 µM [rising, partial curve].
Take `CN1CCN(c2ncc3nc(-c4cn(C)c5ccccc45)c(=O)n(C[C@H]4CCCO4)c3n2)CC1`: the AC50 was 12.6 µM [rising, partial curve].
On to `CCn1c(=O)cc(OCC(=O)Nc2ccc3c(c2)OCCO3)c2ccccc21`, for which the concentration at half-maximal activity (AC50) is 3.98 µM [rising, full curve, poor fit].
With `CCCCn1c(=N)n(CC(=O)C(C)(C)C)c2ccccc21`, the AC50 is 3.16 µM [falling, full curve].
Take `c1ccc(-c2noc(-c3ccncc3)n2)nc1`: the AC50 was 0.00316 µM [falling, full curve, poor fit].
On to `Cc1noc(C)c1-c1ccc2ncnc(NCCN3CCOCC3)c2c1`, for which the AC50 is 7.94 µM [rising, partial curve].
Take `CC(C)(C)SCCNC(=O)CN(c1ccc(F)cc1)S(C)(=O)=O`: the AC50 was 0.00398 µM [falling, full curve, poor fit].
In the case of `COc1ccccc1-c1ccc2ncnc(N3CCNCC3)c2c1` it was 15.8 µM [rising, partial curve].
Regarding `O=C(CSc1nc(Nc2ccccc2)nc(N2CCOCC2)n1)N1CCc2ccccc21`, the half-maximal activity concentration (AC50) was 3.16 µM [rising, full curve].
To `CCN(CC)S(=O)(=O)c1cccc(C(=O)Nc2ccccc2C(=O)N2CCOCC2)c1` belongs 25.1 µM [rising, partial curve, poor fit]; to `COc1cccc(Cn2c(=O)c(C)nc3cnc(Oc4ccccc4)nc32)c1`, 12.6 µM [rising, partial curve].
In the case of `O=C(Cc1cccs1)NCc1ccc2c(c1)OCO2` it was 7.94 µM [rising, single point]; in that of `Cc1ccc(Cn2c(CN(C)Cc3ccccc3)nc3c2c(=O)n(C)c(=O)n3C)cc1`, 12.6 µM [rising, partial curve].
In the case of `CCN(Cc1nc2ccccc2c(=O)[nH]1)Cc1nc2cc(OC)c(OC)cc2c(=O)[nH]1` it was 2.51 µM [rising, partial curve].
Take `CSc1ccccc1N=CC1=C(O)CC(C)(C)CC1=O`: the half-maximal activity concentration (AC50) was 7.94 µM [falling, partial curve].

The values are drawn from PubChem BioAssay AID662 (National Center for Advancing Translational Sciences (NCATS), 2007).
